For 1 molecule, binding results are on record in paper PMC7790415, “Loss of endocytosis-associated RabGEF1 causes aberrant morphogenesis and altered autophagy in photoreceptors leading to retinal degeneration” (PLoS Genetics, 2020).

By UniProt entry, the sequences of proteins in these tests, tags left out.
UniProt Q9JM13: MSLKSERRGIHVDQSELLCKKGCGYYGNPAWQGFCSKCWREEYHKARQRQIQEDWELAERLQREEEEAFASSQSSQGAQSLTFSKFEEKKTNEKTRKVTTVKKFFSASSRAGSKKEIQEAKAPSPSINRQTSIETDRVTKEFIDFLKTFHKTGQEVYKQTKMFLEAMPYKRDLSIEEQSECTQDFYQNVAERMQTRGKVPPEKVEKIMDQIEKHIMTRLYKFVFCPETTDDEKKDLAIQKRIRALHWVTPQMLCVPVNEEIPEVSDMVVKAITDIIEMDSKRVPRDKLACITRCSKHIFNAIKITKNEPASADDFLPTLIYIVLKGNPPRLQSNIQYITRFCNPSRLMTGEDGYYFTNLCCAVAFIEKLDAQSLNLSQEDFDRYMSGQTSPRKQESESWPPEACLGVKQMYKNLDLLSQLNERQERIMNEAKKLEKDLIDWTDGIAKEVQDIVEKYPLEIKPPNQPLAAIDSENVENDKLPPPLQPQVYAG

No constants are given. Whether binding was seen depends on the method and setting. Binding seen in cells or lysates may run through a third protein. Some results given as binding are weak or reduced against the parent protein; the word gives no strength.

For this experiment, the target named is RabGEF1 (mouse (endogenous in retina)) (UniProt Q9JM13). Put plainly: co-IP; anti-RabGEF1 antibody covalently conjugated to Dynabeads, incubated overnight with mouse retina extracts at 4°C; washes in 150 mM NaCl, 2 mM EDTA, 40 mM Tris-HCl pH 7.4, 1% NP-40, 10% glycerol; immunoblot for RabGEF1 and Rabaptin-5; rabbit IgG as negative control. (In general: Immunoblotting shows a protein as a band on a membrane.)

B1: Rabaptin-5 (natural protein, mouse (endogenous in retina), UniProt O35551 1-862, looked up)
chain: MAQPGPAPQPDVSLQQRVAELEKINAEFLRAQQQLEQEFNQKRAKFKELYLAKEEDLKRQNAVLQAAQDDLGHLRTQLWEAQAEMENIKAIATVSENTKQEAIDEVKRQWREEVASLQAIMKETVRDYEHQFHLRLEQERAQWAQYRESAEREIADLRRRLSEGQEEENLENEMKKAQEDAEKLRSVVMPMEKEIAALKDKLTEAEDKIKELEASKVKELNHYLEAEKSCRTDLEMYVAVLNTQKSVLQEDAEKLRKELHEVCHLLEQERQQHNQLKHTWQKANDQFLESQRLLMRDMQRMEIVLTSEQLRQVEELKKKDQEEDEQQRVNKRKDNKKTDTEEEVKIPVVCALTQEESSTPLSNEEEHLDSTHGSVHSLDADLMLPSGDPFSKSDNDMFKDGLRRAQSTDSLGTSSSLQSKALGYNYKAKSAGNLDESDFGPLVGADSVSENFDTVSLGSLQMPSGFMLTKDQERAIKAMTPEQEETASLLSSVTQGMESAYVSPSGYRLVSETEWNLLQKEVHNAGNKLGRRCDMCSNYEKQLQGIQIQEAETRDQVKKLQLMLRQANDQLEKTMKEKQELEDFLKQSAEDSSHQISALVLRAQASEVLLEELQQSFSQAKRDVQEQMAVLMQSREQVSEELVRLQKDNDSLQGKHSLHVSLQLAEDFILPDTVEVLRELVLKYRENIVHVRTAADHMEEKLKAEILFLKEQIQAEQCLKENLEETLQLEIENCKEEIASISSLKAELERIKVEKGQLESTLREKSQQLESLQEMKVNLEEQLKKETAAKATVEQLMFEEKNKAQRLQTELDVSEQVQRDFVKLSQTLQVQLERIRQADSLERIRAILNDTKLTDINQLPET
notes: Rabaptin-5 (also known as Rabep1), mouse, endogenous protein of retinal extracts; Endogenous protein; also called Rabep1; source: endogenous, mouse retina extract (control retina)
Regarding B1, the binding entry was “binds”.
